{"source": "paper PMC7795355", "molecules": {"B1": {"name": "OsMre11 (Meiotic recombination 11 of rice), BiFC fusion (protein, UniProt Q7XQR9 1-705)", "chain": "MGDESNTLRVLVATDCHLGYMEKDEIRRFDSFEAFEEICSLAEQNKVDFVLLGGDLFHENKPSRSTLVKTIEILRRYCLNDQPVKFQVVSDQTINFPNRFGQVNYEDPNFNVGLPVFTIHGNHDDPAGVDNLSAIDILSACNLVNYFGKMDLGGSGVGEIAVYPVLVKKGTTFVALYGLGNIRDERLNRMFQTPHAVQWMRPETQDGMSVSDWFNILVLHQNRIKTNPKSAINEHFLPRFLDFIVWGHEHECLIDPQEVPGMGFHITQPGSSVATSLIDGEAKPKHVLLLEIKGNQYRPTKIPLRSVRPFHYAEVVLKDEVDVDPNDQASVLEHLDKIVRNLIKKSSQPTASRPETKLPLIRIKVDYSGFSTINPQRFGQKYVGKVANPQDILIFSKSAKKRQTTGVGNIDDSEKLRPEELNQQTIEALVAENNLKMEILPVDDLDIALHDFVSKDDKMAFYACLQRNLEETRTKLNSEADKFKIEEEDIIVKVGECMQERVKERSLRSKEDSRFTSSSQNLDTGGRSVTAQSNLNSFSDDEDTREMLLGARTTNAGRKASGFTRPSKDATDVAKTGTSRRGRGRGTASMKQTTLNFSQSRSSAAIRSEEVQSSSDEENETNEANEVVESSEPEESPQQTGRKRAAPRGGRGRGRGATAKRGRKADISSIQSMLMSKDDDDDDEDDRPKKPPPRVTRNYGAVRRR"}, "B2": {"name": "OsMre11-GFP (protein, UniProt Q7XQR9 1-705)", "chain": "B1 chain"}}, "key": {"[1]": {"target": "T1, OsMre11 (Meiotic recombination 11 of rice), BiFC fusion (Oryza sativa (rice)) (UniProt Q7XQR9)", "T1 sequence": "B1 chain", "assay": "split reporter; BiFC with split YFP (YN and YC fusions) transiently co-expressed in tobacco (Nicotiana benthamiana) leaf epidermis cells; fluorescence observed about 36 h later"}, "[2]": {"target": "T2, OsNbs1 (Nijmegen breakage syndrome 1 of rice), BiFC fusion (Oryza sativa (rice)) (UniProt Q7XD82)", "T2 sequence": "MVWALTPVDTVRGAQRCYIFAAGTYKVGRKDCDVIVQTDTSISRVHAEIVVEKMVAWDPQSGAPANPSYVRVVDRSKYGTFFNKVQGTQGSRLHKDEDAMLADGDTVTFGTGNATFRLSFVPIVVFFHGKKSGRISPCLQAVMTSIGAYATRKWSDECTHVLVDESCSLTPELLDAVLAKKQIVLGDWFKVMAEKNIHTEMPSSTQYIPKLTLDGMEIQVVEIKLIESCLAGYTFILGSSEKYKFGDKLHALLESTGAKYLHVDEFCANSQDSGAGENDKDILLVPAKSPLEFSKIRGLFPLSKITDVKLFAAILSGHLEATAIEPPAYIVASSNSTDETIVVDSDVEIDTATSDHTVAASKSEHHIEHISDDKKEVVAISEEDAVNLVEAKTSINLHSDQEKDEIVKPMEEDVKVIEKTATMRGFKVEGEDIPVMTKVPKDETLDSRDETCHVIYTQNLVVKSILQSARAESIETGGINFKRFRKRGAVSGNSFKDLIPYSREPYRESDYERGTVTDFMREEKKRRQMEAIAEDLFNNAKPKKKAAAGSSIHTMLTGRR", "assay": "split reporter; BiFC with split YFP (YN and YC fusions) transiently co-expressed in tobacco (Nicotiana benthamiana) leaf epidermis cells; fluorescence observed about 36 h later"}, "[3]": {"target": "OsRad50 (radiation sensitive 50 of rice), BiFC fusion (Oryza sativa (rice))", "assay": "split reporter; BiFC with split YFP (YN and YC fusions) transiently co-expressed in tobacco (Nicotiana benthamiana) leaf epidermis cells; fluorescence observed about 36 h later"}, "[4]": {"target": "OsRad50-3×Flag (Oryza sativa (rice))", "assay": "co-IP; two of the fusion proteins transiently co-expressed in tobacco leaf cells; immunoprecipitated with anti-Flag or anti-Myc antibody, blotted with anti-GFP, anti-Flag, anti-Myc; IgG as negative control"}}, "note": "These are yes or no findings as the source states them, for the method shown. In cells and extracts the contact can be indirect. For some of these results: Binding calls can cover weak binding; strength is not graded here. Where a sequence is shown, tags or fusion partners need not be part of it.", "data": [{"molecule": "OsRad50 (radiation sensitive 50 of rice), BiFC fusion (Oryza sativa (rice))", "values": [{"measurement": "binding", "setting": "[1]", "value": "binds"}, {"measurement": "binding", "setting": "[2]", "value": "no binding"}]}, {"molecule": "B1", "values": [{"measurement": "binding", "setting": "[3]", "value": "binds"}]}, {"molecule": "B2", "values": [{"measurement": "binding", "setting": "[4]", "value": "binds"}]}]}
